In PubChem BioAssay AID194 (DTP/NCI, 2004) one finds T/C and survivor count data, which are given here for ten molecules.

The assay concerns BDF1 mice, B16 melanoma s.c., survival/tumor T/C. Briefly: NCI In Vivo Anticancer Drug Screen. Data for tumor model B16 Melanoma (subcutaneous) in B6D2F1 (BDF1) mice. As to the method: The antitumor activity of compounds was measured in mice bearing transplantable tumors. Survival or tumor size were measured and the results are expressed as the measurement made in the treated group (T) divided by the measurement made in the vehicle treated control group (C). The tumor model used in this assay is B16 Melanoma (subcutaneous) in B6D2F1 (BDF1) mice

[1] abbreviates: T/C endpoint: median survival time, dose: 2.0 mg/kg/injection, schedule: Q01DX009 (ip), vehicle: saline, higher T/C = longer survival.
The mark [2] stands for this setting: T/C endpoint: median survival time, dose: 4.0 mg/kg/injection, schedule: Q01DX009 (ip), vehicle: saline with Tween-80, higher T/C = longer survival.
[3] abbreviates: T/C endpoint: median survival time, dose: 4.0 mg/kg/injection, schedule: Q01DX009 (ip), vehicle: saline, higher T/C = longer survival.
Where [4] appears, read: T/C endpoint: median survival time, dose: 80.0 mg/kg/injection, schedule: Q01DX009 (ip), vehicle: saline, higher T/C = longer survival.
Where [5] appears, read: T/C endpoint: median survival time, dose: 25.0 mg/kg/injection, schedule: Q01DX009 (ip), vehicle: Klucel (hydroxypropylcellulose) (HPC), higher T/C = longer survival.
Setting [6] is: T/C endpoint: median survival time, dose: 50.0 mg/kg/injection, schedule: Q01DX009 (ip), vehicle: Klucel (hydroxypropylcellulose) (HPC), higher T/C = longer survival.
Setting [7] is: T/C endpoint: median survival time, dose: 100.0 mg/kg/injection, schedule: Q01DX009 (ip), vehicle: Klucel (hydroxypropylcellulose) (HPC), higher T/C = longer survival.
Where [8] appears, read: T/C endpoint: median survival time, dose: 5.0 mg/kg/injection, schedule: Q01DX009 (ip), vehicle: saline with Tween-80, higher T/C = longer survival.
Setting [9] is: T/C endpoint: median survival time, dose: 40.0 mg/kg/injection, schedule: Q01DX009 (ip), vehicle: saline, higher T/C = longer survival.

The list does not hold the whole screen: it gathers tests that were run many times, whatever their T/C, doses with no T/C, and many T/C values between a quarter and a half above the control. Further doses and runs are listed elsewhere. T/C gives the treated animals as a percentage of the vehicle group. Schedule codes are those of the source, read here as Q, the interval in days (D) or hours (H), X, the number of doses. Some T/C values carry the count of animals alive at the toxicity check (mostly the fifth day); where none is given, no animal had died by that day. Some entries give survivors of the animals treated and no T/C: the source holds a T/C of zero for them, seemingly a mark for toxic or unscored doses. Some survivor counts are full or nearly so, which does not show that the dose was tolerated: the source hardly ever lists a survival T/C far under the control, and the zero likely stands for such cases as well. Survivors were counted at the toxicity check, usually on the fifth day, unless a day is given; later deaths do not show. Some entries hold several experiments; the values are given in rising order. Where survival is the endpoint, the PubChem record calls one and a half times the control and up active, and a quarter to a half above the control has no call in these data; cut-offs in other NCI protocols can differ. Brackets with × give the number of equal values in this list.

Take `CN(Cc1cnc2nc(N)nc(N)c2n1)c1ccc(C(=O)N[C@@H](CCC(=O)O)C(=O)O)cc1`: the T/C was 87, 92, 95, 98, 108, 145 % of control (T/C endpoint: median survival time, dose: 0.5 mg/kg/injection, schedule: Q01DX009 (ip), vehicle: saline, higher T/C = longer survival); 102 (3×), 107, 112, 112 % of control [5 of 6 alive] (T/C endpoint: median survival time, dose: 1.0 mg/kg/injection, schedule: Q01DX009 (ip), vehicle: saline, higher T/C = longer survival); 88, 97, 105, 109 % of control under setting [1]; 91 [5 of 6 alive], 96, 128 % of control under setting [3]; 132 % of control [5 of 6 alive] (T/C endpoint: median tumor weight (est.), dose: 2.0 mg/kg/injection, schedule: Q01DX009 (ip), vehicle: saline with Tween-80, evaluated on day 15, higher T/C = larger tumour); 137 % of control (T/C endpoint: median tumor weight (est.), dose: 4.0 mg/kg/injection, schedule: Q01DX009 (ip), vehicle: saline with Tween-80, evaluated on day 15, higher T/C = larger tumour). For the same molecule, the survivor count under setting [1] was 6 of 6, the survivor count under setting [2] is given as 6 of 6 and the survivor count under setting [3] is 6 of 6.

Regarding `O=c1[nH]c(=O)n(C2CC(O)C(CO)O2)cc1C(F)(F)F` (configuration not stated), the T/C under setting [4] is 132 % of control. In addition, the survivor count runs as follows: under setting [4], 10 of 10; (T/C endpoint: median survival time, dose: 160.0 mg/kg/injection, schedule: Q01DX009 (ip), vehicle: saline, higher T/C = longer survival) 10 of 10; (T/C endpoint: median survival time, dose: 320.0 mg/kg/injection, schedule: Q01DX009 (ip), vehicle: saline, higher T/C = longer survival) 10 of 10.

As for `FC(F)(F)c1nc2nc(Cl)c(Cl)nc2[nH]1`, the T/C (T/C endpoint: median survival time, dose: 32.0 mg/kg/injection, schedule: Q01DX009 (ip), vehicle: saline, higher T/C = longer survival) is 133 % of control. The survivor count is listed as 7 of 8 (T/C endpoint: median survival time, dose: 64.0 mg/kg/injection, schedule: Q01DX009 (ip), vehicle: saline, higher T/C = longer survival) and 0 of 8 (T/C endpoint: median survival time, dose: 128.0 mg/kg/injection, schedule: Q01DX009 (ip), vehicle: saline, higher T/C = longer survival).

As to `CN(C)/N=N/c1nc[nH]c1C(N)=O`, the T/C (T/C endpoint: median survival time, dose: 37.5 mg/kg/injection, schedule: Q01DX009 (ip), vehicle: Klucel (hydroxypropylcellulose) (HPC), higher T/C = longer survival) was 134 [5 of 6 alive] and 139 % of control; the T/C (T/C endpoint: median survival time, dose: 75.0 mg/kg/injection, schedule: Q01DX009 (ip), vehicle: Klucel (hydroxypropylcellulose) (HPC), higher T/C = longer survival) is 126 % of control; the T/C (T/C endpoint: median survival time, dose: 300.0 mg/kg/injection, schedule: Q01DX009 (ip), vehicle: saline with Tween-80, higher T/C = longer survival) is 143 % of control. In addition, the survivor count reads like this: (T/C endpoint: median survival time, dose: 150.0 mg/kg/injection, schedule: Q01DX009 (ip), vehicle: Klucel (hydroxypropylcellulose) (HPC), higher T/C = longer survival) 5 of 5; (T/C endpoint: median survival time, dose: 150.0 mg/kg/injection, schedule: Q01DX009 (ip), vehicle: saline, higher T/C = longer survival) 6 of 6; (T/C endpoint: median survival time, dose: 200.0 mg/kg/injection, schedule: Q01DX009 (ip), vehicle: Klucel (hydroxypropylcellulose) (HPC), higher T/C = longer survival) 10 of 10; (T/C endpoint: median survival time, dose: 300.0 mg/kg/injection, schedule: Q01DX009 (ip), vehicle: Klucel (hydroxypropylcellulose) (HPC), higher T/C = longer survival) 6 of 6; (T/C endpoint: median survival time, dose: 300.0 mg/kg/injection, schedule: Q01DX009 (ip), vehicle: saline, higher T/C = longer survival) 5 of 6; (T/C endpoint: median survival time, dose: 400.0 mg/kg/injection, schedule: Q01DX009 (ip), vehicle: Klucel (hydroxypropylcellulose) (HPC), higher T/C = longer survival) 10 of 10.

Consider `COC1=C2C[C@@H](C)C[C@@H](OC)[C@@H](O)[C@H](C)/C=C(\C)[C@@H](OC(N)=O)[C@H](OC)/C=C\C=C(/C)C(=O)NC(=CC1=O)C2=O`, for which the survivor count (T/C endpoint: median survival time, dose: 2.0 mg/kg/injection, schedule: Q01DX005 (ip), vehicle: water, higher T/C = longer survival) is recorded as 3 of 6 and the survivor count (T/C endpoint: median survival time, dose: 4.0 mg/kg/injection, schedule: Q01DX005 (ip), vehicle: water, higher T/C = longer survival) is given as 0 of 6.

Take `O=C1C(=O)c2ccccc2C(O)=C1CC=C(Cl)Cl`: the T/C was 104, 104 [5 of 6 alive], 110, 115, 137, 140 % of control (T/C endpoint: median survival time, dose: 12.5 mg/kg/injection, schedule: Q01DX009 (ip), vehicle: Klucel (hydroxypropylcellulose) (HPC), higher T/C = longer survival); 98, 104 (2×), 126, 145 % of control under setting [5]; 104, 112, 124, 136 % of control [5 of 6 alive] under setting [6]; 96 % of control [5 of 6 alive] under setting [7]. In addition, the survivor count is 5 of 6 under setting [5]; 1 of 6 and 5 of 6 under setting [6]; 0 of 6, 1 of 6, 2 of 6, 6 of 6 under setting [7]; 1 of 6 and 3 of 6 (T/C endpoint: median tumor weight (est.), dose: 100.0 mg/kg/injection, schedule: Q01DX009 (ip), vehicle: Klucel (hydroxypropylcellulose) (HPC), higher T/C = larger tumour).

For `COC1/C=C\C=C(/C)C(=O)NC2=CC(=O)C(=O)C(=C2O)CC(C)CC(OC)C(O)C(C)/C=C(\C)C1OC(N)=O` (configuration not stated), the survivor count is recorded as 6 of 6 (T/C endpoint: median survival time, dose: 1.56 mg/kg/injection, schedule: Q01DX005 (ip), vehicle: other, higher T/C = longer survival); 5 of 6 (T/C endpoint: median survival time, dose: 12.5 mg/kg/injection, schedule: Q01DX005 (ip), vehicle: other, higher T/C = longer survival); 0 of 6 (T/C endpoint: median survival time, dose: 25.0 mg/kg/injection, schedule: Q01DX005 (ip), vehicle: other, higher T/C = longer survival).

Take `O=c1[nH]cc(F)c(=O)[nH]1`: the T/C runs as follows: under setting [8], 137 % of control; (T/C endpoint: median survival time, dose: 10.0 mg/kg/injection, schedule: Q01DX009 (ip), vehicle: saline, evaluated on day 5, higher T/C = longer survival) 90 % of control; (T/C endpoint: median survival time, dose: 10.0 mg/kg/injection, schedule: Q01DX009 (ip), vehicle: saline, evaluated on day 60, higher T/C = longer survival) 96, 98, 147 % of control [5 of 6 alive]; (T/C endpoint: median survival time, dose: 20.0 mg/kg/injection, schedule: Q01DX009 (ip), vehicle: saline, evaluated on day 5, higher T/C = longer survival) 93 % of control; (T/C endpoint: median survival time, dose: 20.0 mg/kg/injection, schedule: Q01DX009 (ip), vehicle: saline, evaluated on day 60, higher T/C = longer survival) 96, 107, 108, 141 % of control; under setting [9], 86 and 87 % of control. Moreover, the survivor count under setting [8] was 6 of 6; the survivor count (T/C endpoint: median survival time, dose: 10.0 mg/kg/injection, schedule: Q01DX009 (ip), vehicle: saline, higher T/C = longer survival) was 5 of 6; the survivor count (T/C endpoint: median survival time, dose: 20.0 mg/kg/injection, schedule: Q01DX009 (ip), vehicle: saline with Tween-80, higher T/C = longer survival) is listed as 6 of 6; the survivor count (T/C endpoint: median survival time, dose: 25.0 mg/kg/injection, schedule: Q04DX003 (ip), vehicle: saline, higher T/C = longer survival) was 6 of 6; the survivor count (T/C endpoint: median survival time, dose: 37.0 mg/kg/injection, schedule: Q01DX009 (ip), vehicle: saline, higher T/C = longer survival) is on record as 10 of 10; the survivor count (T/C endpoint: median survival time, dose: 40.0 mg/kg/injection, schedule: Q01DX009 (ip), vehicle: Klucel (hydroxypropylcellulose) (HPC), higher T/C = longer survival) was 6 of 6. Also, the survivor count is given as 6 of 6 under setting [9]; 10 of 10 (T/C endpoint: median survival time, dose: 65.0 mg/kg/injection, schedule: Q01DX009 (ip), vehicle: saline, higher T/C = longer survival); 10 of 10 (T/C endpoint: median survival time, dose: 180.0 mg/kg/injection, schedule: Q04DX003 (ip), vehicle: saline, higher T/C = longer survival).

For the molecule `CC1(C)CC(O)(C(Cl)c2ccccc2)C(=O)c2ccccc21` (configuration not stated), the T/C (T/C endpoint: median tumor weight (est.), dose: 88.0 mg/kg/injection, schedule: Q01DX009 (ip), vehicle: distilled water + Tween-80, evaluated on day 14, higher T/C = larger tumour) was 139 % of control.

Turning to `COC(=O)[C@@]12OC[C@]34[C@H]([C@@H](O)[C@@H]1O)[C@@]1(C)CC(=O)C(O)=C(C)[C@@H]1C[C@H]3OC(=O)[C@H](OC(=O)/C=C(\C)C(C)C)[C@@H]24`, the T/C (T/C endpoint: median survival time, dose: 1.7 mg/kg/injection, schedule: Q01DX009 (ip), vehicle: saline with Tween-80, higher T/C = longer survival) was 133 % of control [9 of 10 alive]. For the same molecule, the survivor count is on record as 7 of 10 (T/C endpoint: median survival time, dose: 2.0 mg/kg/injection, schedule: Q01DX009 (ip), vehicle: saline with Tween-80, higher T/C = longer survival); 2 of 10 (T/C endpoint: median survival time, dose: 2.6 mg/kg/injection, schedule: Q01DX009 (ip), vehicle: saline with Tween-80, higher T/C = longer survival); 6 of 10 (T/C endpoint: median survival time, dose: 3.0 mg/kg/injection, schedule: Q01DX001 (ip), vehicle: saline with Tween-80, higher T/C = longer survival); 4 of 10 (T/C endpoint: median survival time, dose: 3.0 mg/kg/injection, schedule: Q04DX003 (ip), vehicle: saline with Tween-80, higher T/C = longer survival); 0 of 10 under setting [2]; 3 of 10 (T/C endpoint: median survival time, dose: 4.5 mg/kg/injection, schedule: Q01DX001 (ip), vehicle: saline with Tween-80, higher T/C = longer survival). The survivor count (T/C endpoint: median survival time, dose: 8.0 mg/kg/injection, schedule: Q01DX009 (ip), vehicle: saline with Tween-80, higher T/C = longer survival) is 0 of 10.
